Reference: the supplement of paper PMC3334620
Over roughly 33,000 sequences, “E-score (-0.5 to 0.5)” has its median near -0.0034; the highest 2% begin near 0.25. The list shows a part of the results.

target: T1, Yap3 (UniProt P38749); assay: PBM E-score (8-mer binding enrichment) (E-score (-0.5 to 0.5)); higher = stronger / more preferred TF binding; settings: protein concentration: 100 nM; construct: GST-full length
T1 sequence: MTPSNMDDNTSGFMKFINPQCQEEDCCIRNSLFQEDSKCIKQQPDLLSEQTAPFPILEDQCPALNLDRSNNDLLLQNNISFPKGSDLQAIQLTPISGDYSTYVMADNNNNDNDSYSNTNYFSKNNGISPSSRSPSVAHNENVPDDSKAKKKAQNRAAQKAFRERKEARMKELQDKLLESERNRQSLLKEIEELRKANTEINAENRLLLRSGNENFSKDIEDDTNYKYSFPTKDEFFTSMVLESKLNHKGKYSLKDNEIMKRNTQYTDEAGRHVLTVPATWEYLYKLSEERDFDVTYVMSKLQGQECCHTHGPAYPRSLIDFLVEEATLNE
Experimental: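 Universal 'all 10-mer' protein binding microarrays (Agilent AMADID 015681) probed with GST-tagged S. cerevisiae TFs (full-length or DBD) made by in vitro transcription/translation (PURExpress), about 100-200 nM. Bound TF was detected with fluorescent anti-GST. Each ungapped 8-mer (which stands for itself and its reverse complement) is scored by the PBM enrichment score (E-score), a modified Wilcoxon-Mann-Whitney statistic from -0.5 to +0.5, computed with the Universal PBM Analysis Suite. Scale: above 0.35 generally sequence-specific binding.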

Sequence	PBM E-score
AAGGTCCC	-0.0432
ACGGTAAC	0.0997
GCTCTGAA	-0.14
ATCCGGGA	-0.067
ATAGTCAC	0.124
AGTGTCCG	-0.0603
AGGATATC	0.026
CGATTCAA	-0.0579
GCCACAAA	0.0416
ACGAATCT	0.0139
CAGACCGA	-0.0599
CTTGATCA	0.0254
AAATCCTA	0.102
ACGCCTCC	-0.238
ATCCCCAG	-0.25
AGAACCGG	0.0285
CTCACAGC	-0.0856
ACCAATTG	-0.0264
ATCTGCGG	-0.0331
CACCGAAA	0.0611
ATCTGAAT	0.135
CCCGGCGC	-0.325
CCGTTGCC	-0.26
AGCCGTTG	0.0468
AGGGGGAG	-0.217

Sequence	PBM E-score
ACTGAAGA	-0.0543
AGAGATTA	0.12
CATAGGAG	0.053
ACTAACCA	0.0355
GCGCCTAA	0.117
ACCCGACG	-0.103
TAAGGCAA	0.0224
ATACCTTA	0.107
AGTCATTG	-0.0148
CCACGGCA	-0.138
TCAGGCCA	-0.0876
AGTGTTAG	0.171
AGTGCAGG	-0.00401
CCGAACTC	-0.0627
GGCTGTCA	-0.175
ACAGGGAG	-0.227
AGCGGAAA	0.127
ACTCTCAT	0.0427
CCATGTAA	0.0692
AGATACCA	0.234
ACAATTTA	0.193
GAATCTGA	-0.0334
TCACACAA	-0.107
AACGCACG	0.181
CTTGCGGC	-0.0408

Sequence	PBM E-score
CTCCAGGC	-0.0968
GGCCGGCC	-0.243
ACACCCTC	-0.184
ATGCGACA	0.102
GCGAACGA	0.0416
CTTCTGCA	-0.0661
GGCAGCAA	-0.0159
AATCCCGG	-0.139
CGTATTCC	0.0929
GCAGACCC	-0.24
CATGGTGG	-0.102
ACTCGGCT	-0.156
GATCCGAC	-0.0901
CGGCAGCC	-0.207
AATCTTAC	0.233
AGTCCATA	-0.0535
AAGATGTC	-0.0778
AATCGTGT	0.113
CACGAGCC	-0.19
AAGTTTGA	0.128
AGCTTGCA	-0.012
ACGTCCGA	-0.0933
AGTCTTAC	0.0364
AGACGTCA	-0.0966
AACTCGGA	0.122

Sequence	PBM E-score
CTTTCCAA	0.0339
AAGCACAT	0.0692
ATCCACGG	-0.0109
GTCCCGTA	-0.227
CATGTGCC	0.0285
CCGTATCC	-0.154
AATTTAAC	0.113
CACACTAC	-0.0489
AGGGATAT	0.0521
CAGGGGCA	-0.0801
CTCCTTCA	-0.0217
AGTTTGTG	-0.00677
CTCATGAA	0.121
ATAAACAA	0.279
AATTTGCA	0.127
GCGTAACA	0.11
CCCATGGC	-0.258
GTCAAACA	-0.116
GTAAGGAA	0.193
CGAGCGAG	0.232
ATTATTCG	0.274
ACCCCGTG	-0.175
CCGCTGGA	-0.108
CGTAATAC	0.318
TTAAAAAA	0.25

Single values from the results shown.
CAGGGGCA – PBM E-score: -0.0801
AAGCACAT – PBM E-score: 0.0692
AATTTGCA – PBM E-score: 0.127
GTCCCGTA – PBM E-score: -0.227
AATTTAAC – PBM E-score: 0.113

Following part:

Sequence	PBM E-score
GTAGCATA	-0.059
CGCATACC	0.144
AGGCGTAA	0.0317
AAGGCATG	0.0283
AAACCTGT	0.0503
ACATATTC	0.217
CAGACGGA	0.0783
ACTAGCAT	-0.0172
AGGCAGTC	-0.114
GGTCCGCA	-0.153
ATCCTCAT	0.0382
ACCTGCAT	0.102
CTAATAAG	0.172
CTCAATTA	0.156
CGACACGA	0.154
AACGAAGC	-0.0177
CCAACGTC	-0.155
CCTTCTCC	-0.234
CTAGTTAC	-0.00268
ATCAGACA	0.101
AACTTGCG	-0.0625
AGGTTGAC	0.075
AAGGATTA	0.0246
GTACATTA	0.0635
CAAGTACA	-0.0722

Sequence	PBM E-score
CACGCTGG	-0.133
CTGACTTC	0.00453
GGCCCCAC	-0.27
GAGTCGCA	-0.222
CAGGTGAG	-0.0471
GGCAATGA	-0.0444
AAAGTTTC	-0.00036
ACCCTCCA	-0.148
AACGGGCT	-0.0883
GGTGATTA	0.222
AATCGGCC	-0.0936
CCGATCCA	-0.0131
AGCAACCG	-0.0193
CATCAGGG	-0.0307
GAGTACAA	0.157
CGGACAAC	0.0562
CCCGAGCA	-0.0222
ATAGTGAA	0.0637
GACCCGGA	-0.383
CCAAGTGC	-0.21
GGAATCAA	0.13
ACACGCCC	-0.0586
CATACCCG	-0.163
GACATGGC	-0.0289
GTGATGAA	-0.00408

Sequence	PBM E-score
GACCGGCA	-0.236
ACCTACAC	-0.132
GTAATGCA	0.0396
TCCCAAGA	-0.0619
AAAAGCTG	0.00213
ACAAACAT	0.0894
CGAACGGA	0.0704
CACATGAC	0.0257
AATAATGT	0.233
ACACGGGT	-0.11
ATTCAGTA	0.104
CCAGCTAA	-0.126
ATGTCTTA	0.239
CCAGAGTC	-0.0861
GTAACGCA	0.0227
CGAGTAAA	0.0196
AAATATTC	0.162
GGGTAACC	-0.108
GTCTGGGA	-0.056
AAATAGAA	0.0373
CCCTTGGC	-0.4
CGCGTTTC	-0.0695
AGCGGTGC	-0.268
GATATTAC	0.371
AGGTGTAG	-0.00192

Sequence	PBM E-score
AATCGTAT	0.153
CTAGGCTA	-0.207
AGCGGCAC	-0.18
CATGCAGA	0.0148
GTTACTGA	0.106
GGCGTTGA	-0.00354
CAACACAG	-0.0143
TGCTGGAA	-0.0257
GGCCGAGA	0.0481
ACGCCAAC	-0.0046
ACCTTGCC	-0.0357
AGAACACG	0.0921
AACGCGTA	0.106
AAGTCGGT	-0.00755
GTTCGTTA	0.0613
GCGCTAAA	0.0819
CGATTTAG	0.241
GGCACTAC	-0.171
GAGTCGCC	-0.152
GGTACTGA	-0.124
ACTATTCC	0.157
ATGTGCGG	0.0165
CGGTTGAG	-0.052
AATTGACC	-0.0226
CTATCCCC	-0.0761

Sequence	PBM E-score
CGCACTAG	-0.0126
ACGAGAAT	0.192
CAGTATTA	0.195
AAACTGCA	0.0201
CGCTCTAG	-0.21
AGGTTCCC	-0.219
CAGGACGA	-0.0732
AACTTTTC	0.0947
AGGGCCGG	-0.335
AACTGGGC	-0.236
CAACCTAC	0.0323
AAGTAGGG	0.148
AACATCCC	-0.0393
GGGACGCA	-0.184
CGAGCGAC	-0.078
AAGCATCT	0.0365
AACCACTC	0.0241
AGTAACCA	0.0583
ACCTATGA	-0.117
